Measurements reported in PMC6195255, “EBP1 nuclear accumulation negatively feeds back on FERONIA-mediated RALF1 signaling”.

By UniProt entry, the sequences of proteins in these tests, tags left out. Where a name states a change or a piece, a line headed by the entry shows the natural chain unless it says otherwise.
UniProt Q9FLW0: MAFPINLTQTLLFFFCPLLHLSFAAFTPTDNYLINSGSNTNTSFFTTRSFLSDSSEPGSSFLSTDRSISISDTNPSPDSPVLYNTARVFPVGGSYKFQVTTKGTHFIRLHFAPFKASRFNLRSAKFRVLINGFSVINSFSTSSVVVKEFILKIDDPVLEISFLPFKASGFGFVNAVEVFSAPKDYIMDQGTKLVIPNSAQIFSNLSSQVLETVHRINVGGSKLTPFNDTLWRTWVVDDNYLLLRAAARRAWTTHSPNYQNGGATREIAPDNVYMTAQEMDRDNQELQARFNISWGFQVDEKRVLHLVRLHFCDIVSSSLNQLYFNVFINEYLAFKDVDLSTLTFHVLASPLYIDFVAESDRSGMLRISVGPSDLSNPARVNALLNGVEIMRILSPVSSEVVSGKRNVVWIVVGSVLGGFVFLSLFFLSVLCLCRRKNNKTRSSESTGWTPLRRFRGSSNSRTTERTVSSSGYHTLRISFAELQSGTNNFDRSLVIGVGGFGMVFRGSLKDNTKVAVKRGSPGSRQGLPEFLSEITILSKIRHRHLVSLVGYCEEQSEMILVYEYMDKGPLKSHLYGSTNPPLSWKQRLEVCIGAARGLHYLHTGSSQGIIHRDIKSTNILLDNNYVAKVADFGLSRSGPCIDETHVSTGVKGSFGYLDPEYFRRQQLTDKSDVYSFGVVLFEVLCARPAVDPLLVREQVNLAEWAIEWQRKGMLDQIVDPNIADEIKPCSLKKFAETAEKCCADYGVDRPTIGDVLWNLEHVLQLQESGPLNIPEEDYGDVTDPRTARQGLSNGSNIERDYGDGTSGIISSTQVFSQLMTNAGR
UniProt Q9SR05: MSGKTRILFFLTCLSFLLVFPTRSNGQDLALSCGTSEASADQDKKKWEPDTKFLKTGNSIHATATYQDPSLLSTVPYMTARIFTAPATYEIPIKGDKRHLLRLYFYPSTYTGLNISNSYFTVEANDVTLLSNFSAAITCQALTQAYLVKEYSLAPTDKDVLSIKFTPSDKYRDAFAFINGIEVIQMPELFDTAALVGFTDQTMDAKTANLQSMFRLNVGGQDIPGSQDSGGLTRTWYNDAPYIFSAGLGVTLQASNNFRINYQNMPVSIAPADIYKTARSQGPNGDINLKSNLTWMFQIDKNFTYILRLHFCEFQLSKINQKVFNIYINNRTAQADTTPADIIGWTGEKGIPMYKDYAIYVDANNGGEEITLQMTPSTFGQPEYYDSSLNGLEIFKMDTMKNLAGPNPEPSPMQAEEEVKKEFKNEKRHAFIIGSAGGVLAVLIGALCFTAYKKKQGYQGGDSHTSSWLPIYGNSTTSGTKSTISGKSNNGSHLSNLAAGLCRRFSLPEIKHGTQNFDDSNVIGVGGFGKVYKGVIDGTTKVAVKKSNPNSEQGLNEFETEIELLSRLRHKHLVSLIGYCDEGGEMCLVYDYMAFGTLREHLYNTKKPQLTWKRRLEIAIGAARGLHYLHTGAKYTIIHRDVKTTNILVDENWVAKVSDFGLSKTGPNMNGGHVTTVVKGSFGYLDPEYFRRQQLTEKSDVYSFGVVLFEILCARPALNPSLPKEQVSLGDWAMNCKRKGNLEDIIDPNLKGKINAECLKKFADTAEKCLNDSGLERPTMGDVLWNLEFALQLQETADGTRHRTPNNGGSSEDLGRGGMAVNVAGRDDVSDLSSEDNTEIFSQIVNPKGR

Assays:
[1] = target: CURVY 1 (CVY1) in the BD vector (Arabidopsis); assay: two-hybrid; directed test: EBP1 in the AD vector (pGADT7), FER-KD or CrRLK1L members in the BD vector (pGBKT7), yeast strain AH109; SD/-Ade/-Leu/-His medium with 20 mM 3-AT
[2] = target: AT5G24010 in the BD vector (Arabidopsis) (UniProt Q9FLW0); assay: as above
[3] = target: ANXUR 1 (ANX1) in the BD vector (Arabidopsis) (UniProt Q9SR05); assay: as above
[4] = target: HERCULES2 (HERK2)-nVenus (Arabidopsis); assay: split reporter; BiFC of cCFP and nVenus fusions in Arabidopsis protoplasts, 16 hours at 23°C in the dark; FM4-64 marks the plasma membrane

binding [1]: binds | binding [2]: binds | binding [3]: binds
B1: full-length EBP1 fused to the GAL4 DNA-activating domain (protein, UniProt Q96327-3 1-401)
chain: MSSDDERDEKELSLTSPEVVTKYKSAAEIVNKALQVVLAECKPKAKIVDICEKGDSFIKEQTASMYKNSKKKIERGVAFPTCISVNNTVGHFSPLASDESVLEDGDMVKIDMGCHIDGFIALVGHTHVLQEGPLSGRKADVIAAANTAADVALRLVRPGKKNTDVTEAIQKVAAAYDCKIVEGVLSHQLKQHVIDGNKVVLSVSSPETTVDEVEFEENEVYAIDIVASTGDGKPKLLDEKQTTIYKKDESVNYQLKMKASRFIISEIKQNFPRMPFTARSLEEKRARLGLVECVNHGHLQPYPVLYEKPGSCRFGFLPGDFVAQIKFTVLLMPNGSDRITSHTLQELPKKTIEDPEIKGWLALGIKKKKGGGKKKKAQKAGEKGEASTEAEPMDASSNAQE

binding [4]: no binding
B2: EBP1–C-terminal cyan fluorescent protein (cCFP) (protein, UniProt Q96327-3 1-401)
chain: B1 chain

No constants are given. Whether binding was seen depends on the method and setting. For some of these results: A result given as binding can be weak or reduced; the word gives no strength. Sequences can lack the tags named with a protein. For some of these results: Binding seen in cells or lysates may run through a third protein. One block for each binder: values may come before it.
